These results are taken from article PMC8205142.

Chains of the proteins cited; added tags and fusions are not shown. Residues count along the entry.
UniProt P09429: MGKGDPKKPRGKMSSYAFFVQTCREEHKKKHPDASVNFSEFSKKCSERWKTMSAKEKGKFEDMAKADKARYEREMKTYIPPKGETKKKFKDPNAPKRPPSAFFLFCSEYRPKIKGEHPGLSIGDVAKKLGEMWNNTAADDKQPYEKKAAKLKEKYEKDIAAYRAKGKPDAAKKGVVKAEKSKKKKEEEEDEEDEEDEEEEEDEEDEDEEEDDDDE
UniProt P02769, residues 25-607: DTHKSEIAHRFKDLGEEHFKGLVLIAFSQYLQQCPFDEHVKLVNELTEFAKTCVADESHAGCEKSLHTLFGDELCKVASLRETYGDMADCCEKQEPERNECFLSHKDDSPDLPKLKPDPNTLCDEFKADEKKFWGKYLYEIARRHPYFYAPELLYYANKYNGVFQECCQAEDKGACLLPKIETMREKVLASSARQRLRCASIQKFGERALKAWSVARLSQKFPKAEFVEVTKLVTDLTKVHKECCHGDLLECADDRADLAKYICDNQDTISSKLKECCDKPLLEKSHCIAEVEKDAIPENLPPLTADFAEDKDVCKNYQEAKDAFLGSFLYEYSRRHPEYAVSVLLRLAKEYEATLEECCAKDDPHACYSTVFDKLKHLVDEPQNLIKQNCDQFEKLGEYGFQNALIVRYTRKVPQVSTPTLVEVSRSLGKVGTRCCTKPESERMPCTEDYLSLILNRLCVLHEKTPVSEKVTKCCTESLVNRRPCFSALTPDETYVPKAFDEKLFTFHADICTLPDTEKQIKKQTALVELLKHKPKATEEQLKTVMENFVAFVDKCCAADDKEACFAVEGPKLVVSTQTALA
UniProt Q15109, residues 23-342: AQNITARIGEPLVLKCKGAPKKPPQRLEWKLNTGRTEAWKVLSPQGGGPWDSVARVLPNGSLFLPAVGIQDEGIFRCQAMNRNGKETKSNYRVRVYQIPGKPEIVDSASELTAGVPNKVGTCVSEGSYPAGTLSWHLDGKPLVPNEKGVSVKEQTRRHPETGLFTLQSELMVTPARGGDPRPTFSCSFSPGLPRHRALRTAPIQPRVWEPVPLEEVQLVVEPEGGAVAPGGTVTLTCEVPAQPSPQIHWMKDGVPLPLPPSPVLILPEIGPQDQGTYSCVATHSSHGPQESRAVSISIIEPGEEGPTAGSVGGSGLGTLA

Holding throughout (assay): ELISA; r-venestatin, RAGE ligands or BSA (4 ug/mL) coated on wells; RAGE (1 ug/mL) added; bound RAGE detected with anti-RAGE antibodies; both purified
On the technique in general: ELISA stands for enzyme-linked immunosorbent assay.

The target of assay [1] is human HMGB1 (high-mobility group box 1 protein) (human) (UniProt P09429).
In assay [2] the target is T1, human S100A12 (human) (UniProt P80511).
T1 sequence: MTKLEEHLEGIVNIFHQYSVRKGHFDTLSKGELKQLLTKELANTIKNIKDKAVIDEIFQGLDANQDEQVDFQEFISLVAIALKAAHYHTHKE

Assay [3] deals with glyceraldehyde-bovine serum albumin (bovine) (UniProt P02769).
The target in assay [4] is N^6-(carboxymethyl) lysine-BSA (bovine) (UniProt P02769).

No constants are given. Whether binding was seen depends on the method and setting. Some results given as binding are weak or reduced against the parent protein; the word gives no strength.

In the case of “recombinant human RAGE (receptor for advanced glycation end products) (from UniProt Q15109 23-342)”, the binding entry in assay [1] and in assay [2] was “binds” each time.

Turning to “recombinant human RAGE (receptor for advanced glycation end products) (from UniProt Q15109 23-342) (receptor; glyceraldehyde-modified (advanced glycation end products); sites not stated; other documents disagree on this pair)”, in assay [3], the binding result is reported as “binds”. With “recombinant human RAGE (receptor for advanced glycation end products) (from UniProt Q15109 23-342) (receptor; N6-(carboxymethyl)lysine; sites not stated; other documents disagree on this pair)”, the binding entry in assay [4] is on record as “binds”.
